Source: patent US20220348665A1
These are yes or no findings as the source states them, for the method shown. Sequences can lack the tags named with a protein.

The chains behind the UniProt entries cited, without tags or fusion partners. Residues count along the entry.
UniProt P02769, residues 25-607: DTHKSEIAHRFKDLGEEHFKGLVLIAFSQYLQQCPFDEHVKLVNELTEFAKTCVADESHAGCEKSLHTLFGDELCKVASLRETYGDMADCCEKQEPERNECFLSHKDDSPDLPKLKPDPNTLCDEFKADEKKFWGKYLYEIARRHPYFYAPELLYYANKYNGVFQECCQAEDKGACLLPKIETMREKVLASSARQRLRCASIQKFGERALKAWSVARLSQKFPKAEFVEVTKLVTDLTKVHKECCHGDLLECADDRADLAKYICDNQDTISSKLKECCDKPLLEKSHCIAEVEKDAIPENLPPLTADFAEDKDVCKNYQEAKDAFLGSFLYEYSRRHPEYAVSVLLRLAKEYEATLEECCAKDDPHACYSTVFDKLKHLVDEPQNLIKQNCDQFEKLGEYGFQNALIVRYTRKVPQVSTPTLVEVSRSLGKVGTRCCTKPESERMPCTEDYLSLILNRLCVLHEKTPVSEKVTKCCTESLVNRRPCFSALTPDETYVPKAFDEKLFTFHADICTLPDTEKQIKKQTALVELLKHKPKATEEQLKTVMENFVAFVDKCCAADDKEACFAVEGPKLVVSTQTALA

Target: BSA (bovine) (UniProt P02769)
Assay: ELISA on coated protein, 5-fold dilutions from 20 nM, anti-human Fc HRP, Abs. at 450 nm

B1: 1564 minibody (anti-IGF1R scFv of clone 1564 at the C-terminus of Fc) (Fc fusion, not shown: a dimerising Fc or GST)
chain: QSVLTQPPSASGTPGQRVTISCTGSSSNIGSNDVSWYQQLPGTAPKLLIYANSNRPSGVSDRFSGSKSGTSASLAISGLRSEDEADYYCGAWDDSLNGYVFGCGTKLTVLGGGGSGGGGSGGGGSGGGGSEVQLLESGGGLVQPGGSLRLSCAASGFTFSSYDMSWVRQAPGKCLEWVSAISYDNGNTYYADSVKGRFTISRDNSKNTLYLQMNSLRAEDTAVYYCAKGVLTTLMNWFDYWGQGTLVTVSS
B1 was tested, and the binding was “no binding (tested: 20 nM)”.
